This note sets out measurements from article PMC12557800.

The chains are these.
T1: TMEM217-3xFLAG (mouse, transgene in Tmem217-3xFLAG Tg mice) (mouse) (UniProt Q14AF1)
T1 sequence: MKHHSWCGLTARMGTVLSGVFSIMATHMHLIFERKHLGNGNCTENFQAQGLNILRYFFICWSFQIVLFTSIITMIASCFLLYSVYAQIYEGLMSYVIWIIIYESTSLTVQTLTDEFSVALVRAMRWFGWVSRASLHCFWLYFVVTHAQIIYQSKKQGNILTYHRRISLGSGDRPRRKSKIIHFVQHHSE

B1: IFT139 (TTC21B), endogenous in mouse testis (protein, UniProt Q0HA38 1-1315)
chain: MDSQGLKTLINYYCQERYYHHVLLVASEGMKKYSSDPVFRFYHAYGTLMEGKAQEALREFEAIKNKQDVSLCSLMALMYVHKMSPNPDREAILELDTKMKEQRKEAGRKALYHAGLFLWHIGRHDKAREYIDRMSKMPHDSNEGPILKAWLDITRGKEPYAKKALRYFEEGLQDGNDIFALLGKVLCLEIRQNYSGALETVSQIIVNFPSFLPAFEKKMKLQLALQDWDQTVETAQRLLLQDNHNVEALRMLALYYLCREGDVEKAATKLENLGNALDVMEPQNAQLFYKITLAFSRTCGRNQLILQKVQSFLEKAFSLTPQQAEIATELGYQMILQGKVKEAWKWYRTAMTLNESNISAVTGLIRCQLIEGQLQDADQQLEFFSEFQQSMGKSAELMYLHAVLATKKNNRQDEVINLLNDVVNTHFSHLEDLPLGIQYFEKLNPDFLLEVVTEYLNLCPIQPAGPGQPLSPVLRRCSSVLETIIRSVPGLPQAVFLMAKVKYLSGDTEAAYNNLQHCLEHSPSYAEAHLLMAQVYLSQDKVKLCSQSLELCLSYNFNVREYPLYHLIKAQSQKKMGEVAEAIKTLHMAMNLPGMRRSRASSKSKHRTEVDASHRLSIFLELVEVHRLNGEQHEAAKVLQDAIHEFSGTCEELRVTIANADLALAQGDTDRALSMLRNVTTEQPYFIEAKEKMADIYLKHRKEKMLYITCYREIAERMPSPRSFLLLGDAYMNIQEPEEAIVAYEQALNQNPKDGTLARKIGKALVKTHNYSKAITYYEAALKSGQQNCLCYDLAELLLRLKLYEKAEKVLQHSLAHEPVSELSALMVDGRSQVLLAKVYSKMERPSDAIAALQQARELQARILKRVQMEQPDAVPSQKHFAAEICAEIAKHSAAQRDYEKAITFYREALVHCETDSKIMLELAQLYLAQEDLDASLRHCALLLQRDQDNEPATMLMADLMFRKQDYEQAVYHLQQLLDRKPDNFMTLSRLIDLLRRCGKLEDVPRFFLMAEKHNSRTKLEPGFQYCKGLHFWYTGEPNDALRHFNKARKDSDWGQNALYNMIEICLNPDNETIGGEVFENLNGDLGTSPEKQESVQLAVRTAEKLLKELKPQTVQGRLQLRIMENCCLMATKQKSSVEQALNTFTEIAASEKDHIPALLGMATAYMILKQTPKARNQLKRIAKMPWNPIEAEDLEKSWLLLADIYIQSAKYDMAEELLKRCLCHNRSCCKAYEYMGYIMEKEQAYTDAAFNYEMAWKHSNQTNPAVGYKLAFNYLKAKRYVDAIDVCHQVLEAHPTYPKIRKDILDKARASLRP
B2: SLC9B1 (NHA1), endogenous in mouse testis (protein, UniProt Q8C0X2 1-565)
chain: MSEHDVESNKKDDGFQSSVTVEMSKDPDSFHEETVEPKPELKEPEPKEPEPKEPERKEPERKEPERKEPERKEPERKVPGRRETQTKETQTTEIERKETKKKRGTNSYCPPQGTINKTITDGAALIALWTLLWALIGQEVLPGGNLFGLVVIFYSAFLGGKILEFIKIPVVPPLPPLIGMLLAGFTIRNVPIIYEFVHIPTTWSSALRNTALTIILVRAGLGLDPQALKHLKGVCLRLSFGPCFLEACSAALFSHFIMNFPWQWGFLLGFVLGAVSPAVVVPNMLMLQENGYGVEKGIPTLLVAASSMDDIVAITGFNTFLSIVFSSGSVISNILSSLRDVLIGVLVGIVMGVFVQYFPSGDQERLTQRRAFLVLSMCISAVLGCQHIGLHGSGGLVTLVLSFMAAKRWAEEKVGIQKIVANTWNVFQPLLFGLVGTEVSVESLESKTIGMCLATLGLALSVRILSTFVLMSFANFRFKEKVFIALSWIPKATVQAVLGPLALETARVMAPHLEGYAKAVMTVAFLAILITAPNGALLIGILGPKILEQSEVTFPLKVELSNFHH
B3: SLC9B2 (NHA2), endogenous in mouse testis (protein, UniProt Q5BKR2 1-547)
chain: MEDEDKTAECQHSKPPTGITHEAPPHHELQEERVMSLRGTDRSEPTEGSNLLTSGEKKPQDSPTEPNGLQSLRRFLACPPRGCLARVITNGTMVVLLWAMVWSVTGPECLPGGNLFGIIILFYCSITGGKLFGLIKFPTLPPLPPLLGMLLAGFLLRNIPVINDSVRIQHKWSSSLRSIALSVILVRAGLGLDSKALRKLKGVCVRLAMGPCIVEACASAILSHFLMGLPWQWGFILGFVVGAVSPAVVVPSMLLLQEGGYGVGKGIPTLLMAAGSFDDILAITGFNTCLGVAFSTGSTVFNIFRGILEVVIGVAAGSFLGFFIQYFPSRDQDNLVWKRAFLVLGFAVLAVFSSVYFSFPGSGGLCTLVMAFLAGMRWTDKKSEVEKVIAVTWDVFQPLLFGLIGAEVSIVSLRAETVGLCVATLSIAVLIRILTTFLMVCFAGFNIKEKIFISFAWLPKATVQAAIGSVALDTARSHGEKQLEDYGMDVLTVAFLAILITAPIGSLLIGLLGPRVLQKSEHRTEEEVQGETSAHIQRKPEDSITEA
B4: IFT121 (WDR35), endogenous in mouse testis (protein, UniProt Q8BND3 1-1181)
chain: MFFYLSKKIAVPNNVKLKCISWNKDQGFIACGGEDGLLKVLRLETQTDDSKLRGLAAPSNLSMNQNLEGHSGAVQVVTWNEQYQKLTTSDQNGLIIVWMLYKGSWYEEMINNRNKSVVRSMSWNADGQKICIVYEDGAVIVGSVDGNRIWGKDLKGIQLCHVTWSADSKILLFGMANGEIHIYDNQGNFIMKMKLNCLVNVTGAISIAGIHWYHGTEGYVEPDCPCLAICFDNGRCQIMRHENDQNPVLIDTGMYVVGIQWNHIGSVLAVAGSQKVVTQDKDINIVQFYTPFGEHLGTLKVPGKQMCSLSWEGGGLKIALAVDSFIYFANIRPDYKWGYCSNTVVYAYTRPDRPEYCVVFWDTKNSEKYVKYVKSLISITTCGDFCILATKADENHPQEENEMETFGATFVLVLCNSIGTPLDPKYIDLVPLFVAMTKTHVIAASKEAFYTWQYRVAKKLTALEINQITRSRKEGRERIYHVDDVPSGSVDGVFDYSKAIQGTRDPICAITASDKTLIVGRESGVIQRYSFPNVALIQKYSLDCRACQLSLNCNSSRLAIIDIAGVLTFFDLDTRVTDSTGQQVVGELLKLERKDVWDMKWAKDNPDLFAMMEKTRMYVFRNLDPEEPIQTSGYICNFEDLEIKSVLLDEILKDPEHPSKDYIMNFEIRSLRDSRALIEKVGIEDASQFIEDNPHPRLWRLLAEAALQKLDLYTAQQAFVRCKDYQGIKFVKLLGNLQSESMKQAEVIAYFGRFEDAERMYQDMDRRDLAIGLRMKLGDWFRVLQLLKTGSGDADDSLLEQANNAIGEYFADRQKWQNAVQYYVKGRNQERLAECYYMLEDYEGLETLANSLPENHKLLPEIAQMFVRVGMCEQAVSAFLKCNQPKAAVDTCVHLNQWNKAVELAKSHSMKEIGSLLARYASHLLEKNKTLDAIELYRKASYFFDAAKLMYKIADEEAKKRTKPLRVKKLYVLSALLIEQYHEQMKNAQRGKVKGKNSEATSALAGLLEEEVLSTTSRFTDNAWRGAEAYHFFILAQRQLYEGYVDTALKTALHLRDYEDIIPSVEIYSLLALCACASRAFGTCSKAFIKLESLETLSAEQKQQYEDLALEIFTKHTPKDNRKSELNSLLEGGEGKLPTCIATGSPIIEYQFWVCKVCKHYVLAQEISNYNFCPLCHSSVE
B5: SLC9C1 (sperm-specific Na+/H+ exchanger), endogenous in mouse testis (protein, UniProt Q6UJY2 1-1175)
chain: MEMEEISENLTASHSIKLTNMWLELLKSVFLSTPQDLPEIILILSLICTVGAFLNMHLKDFPIPLPVILFLIGCCFEILSFASTQIQIYADAIQWMDPDIFFGIFTPVIIFNVAFDMDIYMLQKLFWQILVITIPGFLINYTLILWYLQSVNKLSLKTVPWLLFSAVLISSDPMLTSASIRDLGLSRSLTNLINGESLLTSVLSLVIYSGVVHIRFKSKSVNHTLAHKVMSTAWSYIVESFITGIVFTKVIQLWMATIFGDDVNHITLIFSVLYLIFYVCELVGMSGIFTLATIGLFLNSTSFKPGVEAFLLEFWNCLSFIGFLMVFTFIGLLIPAHTYLHISFSDVYYSLNIYFTLIVLRLLVFLLMSPILSRLGHGFSWRWAFIMVWSEMKGTPNINMALLLAYSDISLGSERERSQILFHGVSVCVITLIVNRFILPMAVTKLGLRDVTSTKYKSVYYTFQHFQELTKSTAMALKFDKDLANADWNMVDNAIILQNPYAMNQEEITEHQKVKCPDCNKEIDETLNIEAMELTNRRLLSAQIASYQRQYRNEVLSQSAVQVLVGAAGSFGEKKGEYMSPENIKNFSESKKLLSFLRKLLLNWVYNTKKDKGVPSRYMFLHACHRIVFTNEFEYTGYLVVLMSTYPMIICWISRLKDIYDNEIKCANYYFLAFYILEALLKVAAMRKEFFSHTWLLFELGITLVGVLDIILIETDSISYNFDLTETVVFMNVIRLLRILRILKLVTPKLLQIIDKRMSQQISFRYSILKGYVQGEMDVLNIIDQIASSKQTKQILLKRVMRNMEHAMKELGYLEYDHPEIAVTMKTKEEINVMLNMAREIVKAFRSKGIIHKVEGTEINKLIMAKKIQVLDLQSVIQPFNVEEAPCNIPWLSEDPEAITFIQEKAKVVTFDCGNNIFEEGDEPEGIYVIISGMVKLKRSKPHLEMERVSAESEIKIHPLPHTEYLLSGEIIGELNCLTKERMQYSATCKTVVETYFIPISHLYEGFEKRCPNMKHKMWQKIGLAITAQKIREHLSFEDWNYKLQLKLCNAFIRDIPKSMKTDIYDETVTHVVLIHGSAEDCQLRKIYKAPFLIPVTCHQIQGMEDFTKVMIIQTSIAVRKFRWNVRKYIPPRRISMKPDSERESFETLDETSEEDNGKKENQENEELIEENINI
B6: IFT122, endogenous in mouse testis (protein, UniProt Q6NWV3 1-1182)
chain: MRAVLTWRDKAEQCIYDLAFKPDGTQLILAAGNRLLVYDTSDGTLLQPLKGHKDTVYCVAYAKDGKRFASGSADKSIIIWTSKLEGILKYTHNDSIQCVSYNPVTHQLASCSSSDFGLWSPEQKSVSKHKSSSKITCCSWTNDGQYLALGMANGIISIRNKNGEEKVKIERPGGSLSPIWSICWNPSREEHNDILAVADWGQKLSFYQLSGKQIGKDRPLNFDPCCISYFTKGEYILVGGSDKQVSLFTKDGVRLGTVGEQNSWVWTCRVKPDSNYVVVGCQDGTISFYQLIFSTVHGLYKDRYAYRDSMTDVIVQHLITEQKVRIKCRELVKKIAIYKNRLAIQLPEKILIYELYSEDSTDMHYRVKEKIVKKFECNLLVVCADHIILCQEKRLQCLSFSGVKEREWQMESLIRYIKVIGGPAGREGLLVGLKNGQILKIFVDNLFAIVLLKQATAVRCLDMSASRNKLAVVDENDTCLVYDIHTKELLFQEPNANSVAWNTQCEDMLCFSGGGYLNIKASTFPVHQQKLQGFVVGYNGSKIFCLHVFSMSAVEVPQSAPMYQYLDRKMFKEAYQIACLGVTDADWRELAMEALEGLEFETARKAFTRVQDLRYLELISSIEERKKRGETNNDLFLADVFSYQGKFHEAAKLYKRSGHENLALDMYTDLCMFEYAKDFLGSGDPKETKMLITKQADWARNINEPKAAVEMYISAGEHAKAIEISGSHGWVDMLIDIARKLDKAEREPLLMCACYFKKLDSPGYAAETYLKIGDLKSLVQLYVDTKRWDEAFALGEKHPEFKDDVYVPYAQWLAENDRFEEAQKAFHKAGRQGEAVRVLEQLTHNAVVESRFNDAAYYYWMLSMQCLDMAQDPAQKDAMLDKFHHFQHLAELYHGYQTIHRYTEEPFSFDLPETLFNISKFLLHSLTKATPLGISKVNTLFTLAKQSKALGAYKLARHAYDKLRGLQIPARIQKSIELGTLTIRSKPFHDSEELVPLCYRCSTNNPLLNNLGNVCINCRQPFIFSASSYEVLHLVEFYLEEGITDEEAVALIDLEAPRHKREGKWRETSSNNSQTLKLDETMDSIGEDDPFTAKLSFEQGSSEFVPVVVNRSVLRSMSRRDVLIKRWPPPLQWQYFRSLLPDASITMCPSCFQMFHSEDYELLVLQHACCPYCRRRIDDTGP

Results are given in words; binding and its absence hold for the method and conditions named. In cells and extracts the contact can be indirect. These calls come from enrichment with a bait or labelling near it, and not all partners need be listed. No binding means not detected with the bait. Sequences can lack the tags named with a protein.

For this experiment, the target named is T1, TMEM217-3xFLAG (mouse, transgene in Tmem217-3xFLAG Tg mice) (mouse). Put plainly: affinity purification with mass spectrometry; TMEM217-3xFLAG immunoprecipitated with an anti-FLAG antibody from testis lysates of Tmem217 KO; Tg mice (#1-#3), WT testes as control; LC-MS.
Regarding B1, the binding result is on record as “binds”.

Regarding B2, the binding result is “no binding”.

As to B3, the binding entry is on record as “no binding”.

Take B4: the binding result was “binds”.

On to B5, for which the binding result was “binds”.

B6: the binding entry is “binds”.
